Data reported in article PMC6418087.
Results are given in words; binding and its absence hold for the method and conditions named. In cells and extracts the contact can be indirect. Some results given as binding are weak or reduced against the parent protein; the word gives no strength.

Protein sequences, listed by entry. Tags and fused reporters are not part of them. Residues count along the entry.
UniProt Q9HBZ2: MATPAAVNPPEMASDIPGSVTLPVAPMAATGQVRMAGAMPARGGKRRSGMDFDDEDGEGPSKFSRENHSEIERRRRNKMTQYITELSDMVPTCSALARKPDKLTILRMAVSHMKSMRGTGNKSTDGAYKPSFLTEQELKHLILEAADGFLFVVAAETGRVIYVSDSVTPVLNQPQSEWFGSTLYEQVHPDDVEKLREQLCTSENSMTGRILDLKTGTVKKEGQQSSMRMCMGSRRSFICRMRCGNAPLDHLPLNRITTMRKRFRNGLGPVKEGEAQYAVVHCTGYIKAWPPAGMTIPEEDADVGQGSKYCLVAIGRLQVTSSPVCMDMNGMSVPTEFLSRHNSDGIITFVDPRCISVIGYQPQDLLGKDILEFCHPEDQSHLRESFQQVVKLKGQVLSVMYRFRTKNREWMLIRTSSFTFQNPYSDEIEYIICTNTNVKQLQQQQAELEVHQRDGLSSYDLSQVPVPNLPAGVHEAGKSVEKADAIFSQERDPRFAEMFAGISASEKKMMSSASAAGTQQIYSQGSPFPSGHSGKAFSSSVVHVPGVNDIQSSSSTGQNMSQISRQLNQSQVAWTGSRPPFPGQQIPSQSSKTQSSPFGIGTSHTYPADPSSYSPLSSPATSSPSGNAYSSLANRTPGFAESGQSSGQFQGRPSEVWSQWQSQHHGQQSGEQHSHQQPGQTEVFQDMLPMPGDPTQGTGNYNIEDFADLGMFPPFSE
UniProt P35869, residues 11-848: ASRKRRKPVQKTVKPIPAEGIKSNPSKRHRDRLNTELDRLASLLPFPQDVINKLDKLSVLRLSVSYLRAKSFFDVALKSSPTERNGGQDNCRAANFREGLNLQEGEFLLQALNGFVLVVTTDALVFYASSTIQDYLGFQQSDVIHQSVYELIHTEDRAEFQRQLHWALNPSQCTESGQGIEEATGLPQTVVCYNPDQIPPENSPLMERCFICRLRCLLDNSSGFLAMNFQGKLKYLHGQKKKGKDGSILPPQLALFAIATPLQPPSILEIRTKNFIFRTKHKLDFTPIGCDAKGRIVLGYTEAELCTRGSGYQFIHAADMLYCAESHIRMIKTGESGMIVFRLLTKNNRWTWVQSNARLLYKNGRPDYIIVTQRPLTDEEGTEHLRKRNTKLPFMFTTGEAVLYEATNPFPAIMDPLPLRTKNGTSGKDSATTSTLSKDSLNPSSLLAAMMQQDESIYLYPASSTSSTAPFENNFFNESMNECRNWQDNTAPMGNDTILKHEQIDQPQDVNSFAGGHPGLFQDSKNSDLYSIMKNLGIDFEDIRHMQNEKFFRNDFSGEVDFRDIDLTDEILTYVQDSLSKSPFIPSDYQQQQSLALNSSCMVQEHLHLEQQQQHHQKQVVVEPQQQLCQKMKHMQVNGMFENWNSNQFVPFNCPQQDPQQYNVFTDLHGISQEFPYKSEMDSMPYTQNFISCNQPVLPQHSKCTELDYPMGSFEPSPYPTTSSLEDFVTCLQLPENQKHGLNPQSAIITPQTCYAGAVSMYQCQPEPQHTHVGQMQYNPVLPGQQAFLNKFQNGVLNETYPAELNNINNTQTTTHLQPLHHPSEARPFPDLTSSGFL
UniProt Q16665: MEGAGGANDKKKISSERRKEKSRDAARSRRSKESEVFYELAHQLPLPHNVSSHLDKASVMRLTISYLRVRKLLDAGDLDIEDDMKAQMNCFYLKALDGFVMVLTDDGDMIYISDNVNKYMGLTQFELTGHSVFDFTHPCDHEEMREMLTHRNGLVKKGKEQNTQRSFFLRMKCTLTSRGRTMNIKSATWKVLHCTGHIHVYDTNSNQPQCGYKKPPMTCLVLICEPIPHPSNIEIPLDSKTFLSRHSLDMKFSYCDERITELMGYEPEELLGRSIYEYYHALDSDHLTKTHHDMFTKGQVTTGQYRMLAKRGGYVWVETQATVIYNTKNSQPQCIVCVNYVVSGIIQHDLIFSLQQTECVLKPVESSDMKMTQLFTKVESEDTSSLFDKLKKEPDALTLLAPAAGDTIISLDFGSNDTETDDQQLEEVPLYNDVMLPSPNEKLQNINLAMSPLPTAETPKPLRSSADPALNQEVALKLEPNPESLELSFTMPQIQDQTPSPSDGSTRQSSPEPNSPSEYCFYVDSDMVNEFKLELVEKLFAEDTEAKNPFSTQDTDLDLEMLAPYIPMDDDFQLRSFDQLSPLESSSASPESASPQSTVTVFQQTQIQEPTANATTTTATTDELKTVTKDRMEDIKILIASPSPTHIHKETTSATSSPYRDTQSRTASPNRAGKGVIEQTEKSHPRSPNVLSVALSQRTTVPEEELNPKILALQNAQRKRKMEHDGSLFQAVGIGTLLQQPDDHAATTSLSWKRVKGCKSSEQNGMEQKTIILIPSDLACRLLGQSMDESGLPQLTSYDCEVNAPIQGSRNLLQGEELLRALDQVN
UniProt Q13547: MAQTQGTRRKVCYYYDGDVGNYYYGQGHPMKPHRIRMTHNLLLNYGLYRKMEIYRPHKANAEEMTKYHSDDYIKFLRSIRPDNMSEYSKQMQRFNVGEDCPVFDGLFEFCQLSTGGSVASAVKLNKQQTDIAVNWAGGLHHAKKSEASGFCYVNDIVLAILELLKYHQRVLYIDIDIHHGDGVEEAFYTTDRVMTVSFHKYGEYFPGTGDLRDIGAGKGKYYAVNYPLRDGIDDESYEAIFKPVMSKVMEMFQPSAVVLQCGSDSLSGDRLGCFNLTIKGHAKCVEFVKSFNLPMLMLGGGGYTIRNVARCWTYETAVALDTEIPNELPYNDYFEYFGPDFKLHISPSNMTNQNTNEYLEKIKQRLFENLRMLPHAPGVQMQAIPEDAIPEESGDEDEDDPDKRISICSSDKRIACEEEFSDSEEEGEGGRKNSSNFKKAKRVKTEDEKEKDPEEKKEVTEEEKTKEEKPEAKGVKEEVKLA

Tests used:
Test in all cases: co-IP; endogenous AhR, HIF1α or ARNT2 immunoprecipitated from 100 µg of hREC lysate with anti-AhR, anti-HIF1α or anti-ARNT2 antibodies (2 µg) and protein A and G agarose beads; washed five times with lysis buffer and once with PBS; Western blot; cells pretreated 1 h with simvastatin or calpeptin, then 3 h 3MC
[1] = target: ARNT2 (human (endogenous in hRECs)) (UniProt Q9HBZ2)
[2] = target: aryl-hydrocarbon receptor (human (endogenous in hRECs)) (UniProt P35869)
[3] = target: hypoxia-inducible factor 1α (human (endogenous in hRECs)) (UniProt Q16665)

binding [1]	binding [2]	binding [3]	Substance
binds	binds	–	histone deacetylase 1 (from UniProt Q13547 1-482) (enzyme)
–	binds	binds	ARNT2 (from UniProt Q9HBZ2 1-717)
–	binds	–	hypoxia-inducible factor 1α (from UniProt Q16665 1-826)
